# In PubChem BioAssay AID1347076 (National Center for Advancing Translational Sciences (NCATS), 2019):
# About 13,000 (3.2%) of roughly 400,000 compounds were called active. The inconclusive results got no clear call from the source; some entries with a clear call stand among them for comparison. The call rests on the fitted dose curve; in most records, active means well fitted cell-killing curve with a large enough effect; inconclusive means small, poorly fitted or top-dose-only effect, or effect the other way; inactive means flat fitted curve, though single readings scatter. A potency beside an inconclusive call is a rough fit, not a confirmed value.
# Assay: qHTS assay for MDR1-selective chemotherapeutics: Primary screen using the drug-selected MDR subline cells KB-V1; further: nearly all actives have a fitted effect of over 60% in size
# Conditions: KB-V1 MDR cells viability, CellTiter-Glo, 72 h; activity change, negative = cytotoxicity: at 46.1 µM (top of the series)
# In short: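 KB-V1 cells (P-gp-expressing MDR subline of KB-3-1) in phenol-red-free DMEM with 10% FBS were exposed to library compounds over a concentration series for 72 h at 37 degrees C. Viability read by CellTiter-Glo luminescence; concentration-effect curves fitted after normalization.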
# On the % scale 0 is the no-effect control and ±100 the full control effect; potency means the concentration at half of the fitted maximal effect.
Structure (SMILES),Potency,"activity change, negative = cytotoxicity"
CC(C)(C)c1ccc(NC(=O)N2CCCN(c3ccc([N+](=O)[O-])cn3)CC2)cc1,active: 10.3 µM,
COC(=O)N/N=C/c1cn(CCCOc2ccccc2)c2ccccc12,active: 23.1 µM,
COc1cc(C(=O)COC(=O)c2cc([N+](=O)[O-])ccc2N2CCOCC2)ccc1OC(F)F,"inconclusive: 23.1 µM [cytotoxic, single point]",
Nc1nc(N)c2cc(Sc3cccc(C(F)(F)F)c3)ccc2n1,"inconclusive: 14.6 µM [cytotoxic, partial curve, poor fit]",
CCOc1ccc(CNC(=O)C2=Cc3cccc(OC)c3OC2)cc1,inactive,
CCCC(C)(C)C(=O)N1CCC1(C)C(=O)Nc1ccc2c(c1)OCCO2 (stereo unspecified),"inconclusive: 9.2 µM [cytotoxic, partial curve]",
CC1(C)c2[nH]c3ccccc3c2C[C@@H]2C(=O)N(Cc3ccccc3F)C(=O)N21,"inconclusive: 0.58 µM [cytotoxic, full curve, poor fit]",
O=C(NCc1nc2ccccc2[nH]1)C1=C[C@@H](c2ccccc2)C[C@@H](OCCCCO)O1,inactive,
CCNCC(=O)N1c2ccccc2CCc2ccc(NC(=O)OC(C)C)cc21,inactive,
Cc1c(C(=O)Nc2ccc3c(c2)OCO3)sc2nc(-c3ccccc3)cn12,inactive,
C[C@@H](NC(=O)C1(c2ccccc2)CCN(C(=O)OC(C)(C)C)CC1)C(=O)N[C@@H](C(=O)O)c1ccccc1,inactive,
Cc1cc(F)ccc1S(=O)(=O)Nc1cc2c(C(=O)O)c(C)oc2c2ccccc12,inactive,
CCOC(=O)c1c(C)oc2ccc(N(C(C)=O)S(=O)(=O)c3c(C)cc(C)cc3C)cc12,active: 4.11 µM,
CC1CC(C)CN(c2oc(-c3ccccc3F)nc2C#N)C1 (stereo unspecified),"inconclusive: 0.82 µM [cytotoxic, partial curve]",
CCOC(=O)c1ccc(NC(=O)c2ccc(NS(C)(=O)=O)cc2)cc1,"inconclusive: 29.1 µM [cytotoxic, single point]",
O=C(CCC(=O)Nc1ccc(Br)cc1)N/N=C/c1cc([N+](=O)[O-])ccc1O,inactive,
O=C(COc1ccc(Br)cc1)NCC1COc2ccccc2O1 (stereo unspecified),"inconclusive: 29.1 µM [rising, single point]",
O=C(NCCCn1ccnc1)c1ccc(F)cc1,"inconclusive: 29.1 µM [rising, single point]",
Cc1ccc(C(=O)c2ccccc2C(=O)Nc2ccccc2)cc1,"inconclusive: 29.1 µM [rising, single point]",
CC(NC(=O)CSc1nc2sc3c(c2c(=O)n1-c1ccccc1)CCCC3)c1ccccc1 (stereo unspecified),"inconclusive: 9.2 µM [cytotoxic, partial curve]",
O=C(CC(NC(=O)OCc1ccccc1)c1nn[nH]n1)OCc1ccccc1 (stereo unspecified),inactive,
CCN(CC)CCN1C(=O)C2C(C(=O)Nc3cccc(C)c3)C3C=CC2(O3)C1C(=O)NC1CCCC(C)C1C (stereo unspecified),inactive,
N#C/C(C(N)=O)=C1/CCc2ccccc2N1,"inconclusive: 20.6 µM [cytotoxic, single point]",
Cc1nc2cc(NC(=O)Nc3ccccc3Cl)ccc2n1C,"inconclusive: 18.4 µM [cytotoxic, single point]",

# Four consecutive compounds from above, for reference:
Structure (SMILES),Potency,"activity change, negative = cytotoxicity"
Cc1c(C(=O)Nc2ccc3c(c2)OCO3)sc2nc(-c3ccccc3)cn12,inactive,
C[C@@H](NC(=O)C1(c2ccccc2)CCN(C(=O)OC(C)(C)C)CC1)C(=O)N[C@@H](C(=O)O)c1ccccc1,inactive,
Cc1cc(F)ccc1S(=O)(=O)Nc1cc2c(C(=O)O)c(C)oc2c2ccccc12,inactive,
CCOC(=O)c1c(C)oc2ccc(N(C(C)=O)S(=O)(=O)c3c(C)cc(C)cc3C)cc12,active: 4.11 µM,

# Following part.

Structure (SMILES),Potency,"activity change, negative = cytotoxicity"
O=C(Nc1ccccc1C(=O)OCc1cc(=O)n2ccsc2n1)c1ccccc1Cl,"inconclusive: 16.4 µM [rising, partial curve, poor fit]",
COc1ccc(CC(=O)Oc2ccccc2C)cc1S(=O)(=O)N1CCOCC1,"inconclusive: 23.1 µM [rising, single point]",
CNc1ccccc(C(=O)/C=C/c2ccccc2OC)c1=O,active: 14.6 µM,
O=C(C[C@H]1C[C@H](C(=O)N2CCCCC2)[C@@]2(CCc3ccccc3)c3[nH]c4ccc(Cl)cc4c3CCN2C1=O)NCCc1ccccn1,"inconclusive: 25.9 µM [cytotoxic, single point]",
O=Cc1ccc(-c2ccccc2C(=O)O)o1,"inconclusive: 20.6 µM [rising, single point]",
O=C(NC1CCCCC1)c1ccc(N2CCOCC2)c([N+](=O)[O-])c1,inactive,
COc1ccc(CCNC(=O)CSc2nc(C)nc3sccc23)cc1OC,inactive,
NC1=NC[C@H](c2ccccc2)N1CCCCC1CCCCC1,inactive,
CCOC(=O)c1cc(-c2ccc(C)cc2)n(CCC(=O)NCCc2ccc(C)cc2)c1C,"inconclusive: 16.4 µM [rising, single point]",
Cc1cccc(C)c1NC(=O)CCC(=O)N1Cc2ccccc2Oc2ncccc21,inactive,
N/C(=N/OC(=O)c1ccc(Cl)cc1)c1ncc([N+](=O)[O-])s1,inactive,
CCN1CCN(c2nc(-c3cccnc3)nc3ccccc23)CC1,inactive,
CCOC(=O)c1cccnc1SCC(=O)Nc1ccc(C)cc1,"inconclusive: 18.4 µM [cytotoxic, single point]",
CC(=O)c1ccc(NC(=O)c2cc3c(=O)oc4ccc(C)cc4c3s2)cc1,inactive,
COc1ccc(Br)cc1C(=O)Nc1cccc2ncccc12,"inconclusive: 29.1 µM [cytotoxic, single point]",
COc1cc(C(=O)Oc2ccc(/C=N/NC(=O)c3ccncc3)cc2)cc(OC)c1OC,inactive,
CCn1c(C)cc(/C=C2/SC(=O)N(CC(=O)N3CCCC3)C2=O)c1C,"inconclusive: 9.2 µM [cytotoxic, partial curve]",
Cc1ccc(CNC(=O)Cn2c(-c3cccs3)cc3cc(Cl)ccc32)cc1,,inconclusive: -35.2% [cytotoxic]
COc1cc(CN2CCC(Cc3ccccc3)CC2)c([N+](=O)[O-])cc1OC,inactive,
COc1ccc(C)cc1NC(=O)CSc1nnc(-c2ccc(C)cc2)o1,"inconclusive: 6.51 µM [rising, partial curve, poor fit]",
C[C@@H]1CN([C@@H](C)CO)C(=O)c2cc(N(C)C)ccc2O[C@@H](C)CCCCO[C@@H]1CN(C)S(=O)(=O)c1cccs1,"inconclusive: 14.6 µM [cytotoxic, single point]",
CN(C)c1ccc(/C=C2\c3ccccc3-c3ccc(N(C)C)cc32)cc1,inactive,
COc1ccc(N(C)S(=O)(=O)c2cccc(C(=O)NC3CCCCC3C)c2)cc1 (stereo unspecified),"inconclusive: 7.31 µM [cytotoxic, partial curve]",
O=C(CSCn1nnc2c(=O)[nH]c(Cc3ccc(F)cc3)nc21)Nc1ccccc1,"inconclusive: 0.731 µM [rising, full curve, poor fit]",

Structure (SMILES),Potency,"activity change, negative = cytotoxicity"
CCC(C)(C(=O)NC1CCCCC1)N(Cc1cccs1)C(=O)c1ccccn1 (stereo unspecified),"inconclusive: 9.2 µM [cytotoxic, partial curve]",
N#Cc1ccc(CN2CCN(C(=O)c3cc(C4CC4)nn3-c3ccccc3)CC2)cc1,inactive,
COc1cc(COCC(O)CN2CCN(CCN3C(=O)c4cccc5cccc(c45)C3=O)CC2)cc(OC)c1OC (stereo unspecified),inactive,
c1ccc(OCc2cc(-c3ccccc3)no2)cc1,"inconclusive: 25.9 µM [rising, partial curve, poor fit]",
COC(=O)[C@@]12C[C@@H](CC(=O)NCc3cccc4ccccc34)C(=O)N(Cc3cccc4ccccc34)C1=CCC(C)(C)C2,"inconclusive: 20.6 µM [cytotoxic, single point]",
CCc1ccc(-c2nc(CN3CCC(C(=O)NCc4ccco4)CC3)c(C)o2)cc1,active: 9.2 µM,
COc1ccccc1COCC(O)CNCC1(N2CCCCC2)CCCCC1 (stereo unspecified),"inconclusive: 20.6 µM [cytotoxic, partial curve, poor fit]",
CC1CCCCC1NC(=O)CC1Oc2ccccc2NC1=O (stereo unspecified),"inconclusive: 0.731 µM [rising, full curve, poor fit]",
COc1ccc(C(=O)NC(=S)Nc2cccc(Cl)c2N2CCOCC2)cc1[N+](=O)[O-],inactive,
Cc1ccc(C(=O)Nc2ccc(S(=O)(=O)N(Cc3ccccc3)c3ccccc3)cc2)cc1,"inconclusive: 2.91 µM [cytotoxic, partial curve, poor fit]",
O=C1NCCN/C1=C\C(=O)c1ccc(Cl)cc1,inactive,
O=C(Nc1ccc(OC(F)F)cc1)c1cc(S(=O)(=O)N2CCOCC2)ccc1N1CCCC1,active: 9.2 µM,
Cc1ccc2c(c1)N(CCC(=O)NCc1ccc3c(c1)OCO3)C(=O)CO2,"inconclusive: 20.6 µM [cytotoxic, single point]",
O=C(Cn1c(=O)c2sccc2n(Cc2cccc([N+](=O)[O-])c2)c1=O)NCCc1ccccc1,active: 8.2 µM,
C=CCN(CC=C)c1ccc(/C=C/c2ccnc3ccccc23)cc1,"inconclusive: 29.1 µM [cytotoxic, single point]",
CCN(CC)C(=O)c1sc(N)c(C#N)c1C,"inconclusive: 29.1 µM [rising, single point]",
Cc1cc(C)cc(NC(=O)Cn2cc(C=O)c3ccccc32)c1,"inconclusive: 20.6 µM [cytotoxic, partial curve]",
CC(Oc1cc2oc(=O)c3c(c2cc1Cl)CCCC3)C(=O)NCC1CCC(C(=O)O)CC1 (stereo unspecified),"inconclusive: 29.1 µM [rising, single point]",
COCCNC(=O)CN1C(=O)CCn2nc(-c3cn(C)c4ccccc34)cc21,inactive,
COc1ccc(Nc2nc(N)nc(CSc3n[nH]c(-c4ccccc4)n3)n2)cc1,"inconclusive: 32.6 µM [cytotoxic, single point]",
COc1cccc(C(=O)Nc2ccc3c(c2)OCO3)c1OC,inactive,
COc1cc([C@@H]2Nc3c(F)cccc3[C@@H]3C=CC[C@@H]32)cc(Br)c1OC,inactive,
CCCc1cc(C(=O)N2CCCC(CO)(CCCc3ccccc3)C2)n(C)n1 (stereo unspecified),"inconclusive: 13 µM [cytotoxic, partial curve]",
